No constants are given. Whether binding was seen depends on the method and setting. Binding seen in cells or lysates may run through a third protein. Binding calls can cover weak binding; strength is not graded here. Tags and fused reporters may be left off the sequences shown.
The substances below were run against T1, Bt1762 (SusD), C-terminal His6 tag, from the B. theta Bt1762-his strain (Bacteroides thetaiotaomicron VPI-5482) (UniProt Q8A6W4) (assay: co-purification by IMAC, SDS-PAGE).
T1 sequence (chain, lipid anchor (lipoprotein)): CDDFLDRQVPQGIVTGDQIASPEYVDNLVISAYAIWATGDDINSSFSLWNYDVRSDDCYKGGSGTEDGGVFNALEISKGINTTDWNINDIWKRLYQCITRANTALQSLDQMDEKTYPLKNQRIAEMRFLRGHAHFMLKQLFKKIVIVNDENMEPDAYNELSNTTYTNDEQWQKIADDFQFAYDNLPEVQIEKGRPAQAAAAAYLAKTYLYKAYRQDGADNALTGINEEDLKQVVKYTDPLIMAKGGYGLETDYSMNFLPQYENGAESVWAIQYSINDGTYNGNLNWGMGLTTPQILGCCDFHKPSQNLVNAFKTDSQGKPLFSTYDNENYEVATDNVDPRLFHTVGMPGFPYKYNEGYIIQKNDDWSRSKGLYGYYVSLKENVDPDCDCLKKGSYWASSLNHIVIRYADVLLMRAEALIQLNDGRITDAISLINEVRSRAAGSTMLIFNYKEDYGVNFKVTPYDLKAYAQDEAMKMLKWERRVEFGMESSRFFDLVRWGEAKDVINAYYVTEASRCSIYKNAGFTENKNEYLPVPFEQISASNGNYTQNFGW

| binding | Substance |
| --- | --- |
| binds | Bt1763 (SusC) TonB box mut (TonB box mutated to all-Ala) (from UniProt Q8A6W3) |
| binds | Bt1763 (SusC) ΔNTE (N-terminal extension deleted, Ton box intact) (from UniProt Q8A6W3) |
| binds | Bt1763 (SusC) ΔTonB box (from UniProt Q8A6W3) |

— doi:10.1101/2020.06.11.146753
